Test results from article PMC5295617.
Numbering of substitutions follows the chain as printed. Numbers in names are those of the source. Like-named read-outs stand apart in the source and are kept apart here. These are yes or no findings as the source states them, for the method shown. Binding seen in cells or lysates may run through a third protein. Some entries that bind do so weakly or less than the wild type. For some of these results: Where a sequence is shown, tags or fusion partners need not be part of it.

Assays:
Assay in all cases: pull-down; oligohistidine pull-down with Rz1-His; each spanin subunit expressed in a separate culture, complex formation in vitro with solubilized samples; products analysed by Western blot with anti-Rz and anti-Rz1 antibodies
[1] = target: T1, Rz1-His (functional oligohistidine-tagged Rz1, lambda o-spanin) (coliphage lambda) (UniProt Q37935)
T1 sequence (chain, lipoylated Cys20 (as the paper says of Rz1)): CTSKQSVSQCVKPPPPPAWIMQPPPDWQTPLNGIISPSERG

[2] = target: T2, Rz1-His P33L (coliphage lambda) (UniProt Q37935)
T2 sequence (chain, lipoylated Cys20 (as the paper says of Rz1)): T1 sequence (chain, lipoylated Cys20 (as the paper says of Rz1)) with P14L

[3] = target: T3, Rz1-His P35H (coliphage lambda) (UniProt Q37935)
T3 sequence (chain, lipoylated Cys20 (as the paper says of Rz1)): T1 sequence (chain, lipoylated Cys20 (as the paper says of Rz1)) with P16H

[4] = target: Rz1-His W46R (coliphage lambda) (UniProt Q37935)
[5] = target: T4, Rz1-His P36Q (coliphage lambda) (UniProt Q37935)
T4 sequence (chain, lipoylated Cys20 (as the paper says of Rz1)): T1 sequence (chain, lipoylated Cys20 (as the paper says of Rz1)) with P17Q

[6] = target: T5, Rz1-His R59E (coliphage lambda) (UniProt Q37935)
T5 sequence (chain, lipoylated Cys20 (as the paper says of Rz1)): T1 sequence (chain, lipoylated Cys20 (as the paper says of Rz1)) with R40E

[7] = target: T6, Rz1-His I39V (coliphage lambda) (UniProt Q37935)
T6 sequence (chain, lipoylated Cys20 (as the paper says of Rz1)): T1 sequence (chain, lipoylated Cys20 (as the paper says of Rz1)) with I20V

[8] = target: T7, Rz1-His P44S (coliphage lambda) (UniProt Q37935)
T7 sequence (chain, lipoylated Cys20 (as the paper says of Rz1)): T1 sequence (chain, lipoylated Cys20 (as the paper says of Rz1)) with P25S

[9] = target: T8, Rz1-His P32Q (coliphage lambda) (UniProt Q37935)
T8 sequence (chain, lipoylated Cys20 (as the paper says of Rz1)): T1 sequence (chain, lipoylated Cys20 (as the paper says of Rz1)) with P13Q

[10] = target: T1, Rz1-His (functional oligohistidine-tagged Rz1, lambda o-spanin) (coliphage lambda); remark: listed apart in the source
[11] = target: T9, Rz1-His L50P (coliphage lambda) (UniProt Q37935)
T9 sequence (chain, lipoylated Cys20 (as the paper says of Rz1)): T1 sequence (chain, lipoylated Cys20 (as the paper says of Rz1)) with L31P

“Rz C152X (from UniProt P00726 1-151) (domain or fragment)” was tested, and the binding [1] was “binds”.

In the case of “Rz Q151X (from UniProt P00726 1-150) (domain or fragment)”, the binding [1] is reported as “binds”.

B1: Rz (lambda i-spanin, inner membrane subunit of the spanin complex) (protein, UniProt P00726 1-153)
chain: MSRVTAIISALVICIIVCLSWAVNHYRDNAITYKAQRDKNARELKLANAAITDMQMRQRDVAALDAKYTKELADAKAENDALRDDVAAGRRRLHIKAVCQSVREATTASGVDNAASPRLADTAERDYFTLRERLITMQKQLEGTQKYINEQCR
B1 was tested, and the binding [2] was “binds”, the binding [3] was “binds” and the binding [4] was “binds”. The binding [5] was “binds”, the binding [6] was “binds” and the binding [7] was “binds”. For the same molecule, the binding [8] was “binds”, the binding [9] was “binds” and the binding [10] was “binds”. The binding [11] was “binds”.

B2: Rz Y147H (protein, UniProt P00726 1-153)
chain: B1 chain with Y147H
In the case of B2, the binding [10] is reported as “binds”.

B3: Rz Q151R (protein, UniProt P00726 1-153)
chain: B1 chain with Q151R
For B3, the binding [10] was “binds”.

B4: Rz Q151K (protein, UniProt P00726 1-153)
chain: B1 chain with Q151K
B4 was tested, and the binding [10] was “binds”.

B5: Rz E150G (protein, UniProt P00726 1-153)
chain: B1 chain with E150G
In the case of B5, the binding [10] is reported as “no binding”.
